Experimental data from paper PMC12092681.

Sequences of proteins named here, by UniProt entry; tags and fusion partners are left off. Residues count along the entry.
UniProt P06733: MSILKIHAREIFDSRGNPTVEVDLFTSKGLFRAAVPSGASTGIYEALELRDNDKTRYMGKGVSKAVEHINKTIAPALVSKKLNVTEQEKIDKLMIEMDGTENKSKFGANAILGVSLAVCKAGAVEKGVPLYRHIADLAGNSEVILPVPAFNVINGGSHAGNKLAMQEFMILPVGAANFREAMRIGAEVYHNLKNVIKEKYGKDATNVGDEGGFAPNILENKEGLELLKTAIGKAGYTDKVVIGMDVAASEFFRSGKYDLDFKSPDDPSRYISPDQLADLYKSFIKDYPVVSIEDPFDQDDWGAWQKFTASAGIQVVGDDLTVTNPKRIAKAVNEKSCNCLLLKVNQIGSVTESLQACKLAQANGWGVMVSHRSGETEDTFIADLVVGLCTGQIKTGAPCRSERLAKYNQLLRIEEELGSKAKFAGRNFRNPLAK
UniProt Q04721, residues 26-2471: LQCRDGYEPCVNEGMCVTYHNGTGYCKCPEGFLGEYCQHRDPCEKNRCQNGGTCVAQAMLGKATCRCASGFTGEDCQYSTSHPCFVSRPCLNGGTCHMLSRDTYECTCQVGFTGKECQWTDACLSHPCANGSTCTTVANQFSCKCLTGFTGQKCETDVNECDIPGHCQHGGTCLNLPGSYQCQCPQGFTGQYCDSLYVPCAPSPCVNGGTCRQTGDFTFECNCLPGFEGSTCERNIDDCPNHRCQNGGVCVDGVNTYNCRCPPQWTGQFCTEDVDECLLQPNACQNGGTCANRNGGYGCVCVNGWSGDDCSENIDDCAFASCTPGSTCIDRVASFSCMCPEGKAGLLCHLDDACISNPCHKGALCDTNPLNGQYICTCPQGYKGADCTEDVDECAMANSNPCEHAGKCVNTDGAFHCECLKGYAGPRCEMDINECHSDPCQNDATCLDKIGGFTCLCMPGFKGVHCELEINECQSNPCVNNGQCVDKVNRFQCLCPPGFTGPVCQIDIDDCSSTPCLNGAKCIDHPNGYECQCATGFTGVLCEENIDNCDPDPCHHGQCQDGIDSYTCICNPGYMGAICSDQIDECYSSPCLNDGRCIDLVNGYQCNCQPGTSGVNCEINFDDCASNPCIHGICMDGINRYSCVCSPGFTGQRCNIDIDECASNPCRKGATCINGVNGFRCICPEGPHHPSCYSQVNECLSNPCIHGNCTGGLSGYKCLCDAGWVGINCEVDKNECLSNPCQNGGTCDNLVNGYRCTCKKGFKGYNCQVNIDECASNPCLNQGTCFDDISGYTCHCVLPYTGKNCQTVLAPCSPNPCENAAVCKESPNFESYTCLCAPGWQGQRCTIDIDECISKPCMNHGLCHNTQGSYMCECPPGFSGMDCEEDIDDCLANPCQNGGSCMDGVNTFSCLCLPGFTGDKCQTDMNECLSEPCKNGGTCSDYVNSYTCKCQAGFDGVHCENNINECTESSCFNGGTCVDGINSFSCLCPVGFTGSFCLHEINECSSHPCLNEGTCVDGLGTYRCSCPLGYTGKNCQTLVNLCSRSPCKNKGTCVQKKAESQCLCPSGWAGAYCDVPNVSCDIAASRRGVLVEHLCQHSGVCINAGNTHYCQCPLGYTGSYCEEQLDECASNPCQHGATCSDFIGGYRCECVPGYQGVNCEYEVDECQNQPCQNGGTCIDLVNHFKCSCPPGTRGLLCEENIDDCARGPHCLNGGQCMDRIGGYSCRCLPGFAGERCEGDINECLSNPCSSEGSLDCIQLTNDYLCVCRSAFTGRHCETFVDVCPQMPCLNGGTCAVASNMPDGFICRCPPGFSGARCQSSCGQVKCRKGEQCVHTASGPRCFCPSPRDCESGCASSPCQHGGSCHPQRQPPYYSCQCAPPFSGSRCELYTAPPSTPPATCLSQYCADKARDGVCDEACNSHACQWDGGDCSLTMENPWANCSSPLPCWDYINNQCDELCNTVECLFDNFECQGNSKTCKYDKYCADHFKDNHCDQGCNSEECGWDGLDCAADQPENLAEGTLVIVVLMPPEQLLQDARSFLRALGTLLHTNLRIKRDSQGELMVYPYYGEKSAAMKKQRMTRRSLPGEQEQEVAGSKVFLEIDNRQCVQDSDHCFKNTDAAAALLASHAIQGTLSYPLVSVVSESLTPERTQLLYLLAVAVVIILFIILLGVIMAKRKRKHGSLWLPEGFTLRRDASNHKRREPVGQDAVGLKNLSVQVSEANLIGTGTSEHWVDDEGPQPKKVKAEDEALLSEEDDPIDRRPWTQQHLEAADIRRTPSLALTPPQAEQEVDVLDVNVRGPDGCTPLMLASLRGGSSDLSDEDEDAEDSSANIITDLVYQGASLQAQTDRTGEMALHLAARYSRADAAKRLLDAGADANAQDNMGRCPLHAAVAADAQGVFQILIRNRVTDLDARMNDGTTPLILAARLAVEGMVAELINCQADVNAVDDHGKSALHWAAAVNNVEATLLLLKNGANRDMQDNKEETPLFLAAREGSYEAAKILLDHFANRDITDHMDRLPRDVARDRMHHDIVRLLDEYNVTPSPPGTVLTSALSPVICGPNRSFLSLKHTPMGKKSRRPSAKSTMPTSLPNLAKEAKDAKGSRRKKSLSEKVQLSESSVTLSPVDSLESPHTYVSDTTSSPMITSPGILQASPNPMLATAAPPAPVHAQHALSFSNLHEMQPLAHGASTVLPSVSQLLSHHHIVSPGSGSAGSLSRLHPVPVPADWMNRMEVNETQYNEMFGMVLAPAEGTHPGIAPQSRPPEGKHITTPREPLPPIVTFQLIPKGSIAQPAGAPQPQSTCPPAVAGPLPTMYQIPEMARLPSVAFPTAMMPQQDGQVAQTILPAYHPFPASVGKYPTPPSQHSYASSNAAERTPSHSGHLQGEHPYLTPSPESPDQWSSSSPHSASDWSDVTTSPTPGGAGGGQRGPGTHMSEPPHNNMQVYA
UniProt P14618: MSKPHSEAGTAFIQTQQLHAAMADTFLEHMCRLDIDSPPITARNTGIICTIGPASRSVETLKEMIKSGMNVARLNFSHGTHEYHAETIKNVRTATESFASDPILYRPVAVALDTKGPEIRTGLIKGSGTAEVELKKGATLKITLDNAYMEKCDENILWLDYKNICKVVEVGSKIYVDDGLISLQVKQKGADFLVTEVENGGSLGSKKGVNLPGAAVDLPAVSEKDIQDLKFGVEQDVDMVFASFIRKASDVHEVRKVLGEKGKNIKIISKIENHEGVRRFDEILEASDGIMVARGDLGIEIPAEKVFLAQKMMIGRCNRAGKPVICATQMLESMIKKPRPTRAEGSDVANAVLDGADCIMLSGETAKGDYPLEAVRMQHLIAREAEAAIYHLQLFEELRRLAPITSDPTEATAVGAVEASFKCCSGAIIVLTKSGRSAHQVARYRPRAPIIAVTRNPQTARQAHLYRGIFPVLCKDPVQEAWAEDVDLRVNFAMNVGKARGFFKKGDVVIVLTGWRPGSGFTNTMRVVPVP
UniProt Q99873: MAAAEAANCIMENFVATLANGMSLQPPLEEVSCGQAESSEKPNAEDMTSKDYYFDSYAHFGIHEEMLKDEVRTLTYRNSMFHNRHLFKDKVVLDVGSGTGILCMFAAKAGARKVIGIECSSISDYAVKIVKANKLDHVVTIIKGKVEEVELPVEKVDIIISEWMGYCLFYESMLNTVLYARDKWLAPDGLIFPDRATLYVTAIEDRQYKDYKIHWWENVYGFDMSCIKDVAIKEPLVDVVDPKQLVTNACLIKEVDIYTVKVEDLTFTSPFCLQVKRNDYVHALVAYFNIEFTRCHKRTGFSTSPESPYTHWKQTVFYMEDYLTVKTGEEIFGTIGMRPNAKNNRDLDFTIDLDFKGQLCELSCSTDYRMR

Molecular target: T1, MYC-tagged NUSAP1 (nucleolar and spindle-associated protein 1), wild type, in HEK293FT cells (human) (UniProt Q9BXS6)
T1 sequence: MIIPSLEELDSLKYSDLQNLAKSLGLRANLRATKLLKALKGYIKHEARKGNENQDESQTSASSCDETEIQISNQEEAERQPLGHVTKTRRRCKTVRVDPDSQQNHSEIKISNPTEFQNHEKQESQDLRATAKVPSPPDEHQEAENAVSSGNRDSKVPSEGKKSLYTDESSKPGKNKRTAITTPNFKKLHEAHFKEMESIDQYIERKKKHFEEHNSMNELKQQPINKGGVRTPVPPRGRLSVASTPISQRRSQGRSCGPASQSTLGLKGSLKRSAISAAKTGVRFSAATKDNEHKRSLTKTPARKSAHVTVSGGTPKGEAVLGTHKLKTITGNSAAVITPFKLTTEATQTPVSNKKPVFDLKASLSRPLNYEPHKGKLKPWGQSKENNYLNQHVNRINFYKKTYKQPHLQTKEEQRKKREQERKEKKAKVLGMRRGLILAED
Test: affinity purification with mass spectrometry; MYC-NUSAP1 expressed in HEK293FT cells, precipitated with anti MYC Nanobody Magarose Beads at 4 °C overnight, bound proteins identified by LC-MS/MS

binding, binds:
ENO1, endogenous in HEK293FT cells (from UniProt P06733 1-434) (enzyme)
Notch2, endogenous in HEK293FT cells (from UniProt Q04721 26-2471) (receptor)
PKM2, endogenous in HEK293FT cells (from UniProt P14618 1-531) (enzyme)
PRMT1, endogenous in HEK293FT cells (from UniProt Q99873 1-371) (enzyme)

These are yes or no findings as the source states them, for the method shown. Binding seen in cells or lysates may run through a third protein. These calls come from enrichment with a bait or labelling near it, and not all partners need be listed. Tags and fused reporters may be left off the sequences shown.
